Test results as given in publication PMC5154354.
Results are given in words; binding and its absence hold for the method and conditions named. In cells and extracts the contact can be indirect. Some binding calls cover weakened binding; strength is not graded here.

Sequences of proteins named here, by UniProt entry; tags and fusion partners are left off. Residues count along the entry.
UniProt P10809, residues 27-573: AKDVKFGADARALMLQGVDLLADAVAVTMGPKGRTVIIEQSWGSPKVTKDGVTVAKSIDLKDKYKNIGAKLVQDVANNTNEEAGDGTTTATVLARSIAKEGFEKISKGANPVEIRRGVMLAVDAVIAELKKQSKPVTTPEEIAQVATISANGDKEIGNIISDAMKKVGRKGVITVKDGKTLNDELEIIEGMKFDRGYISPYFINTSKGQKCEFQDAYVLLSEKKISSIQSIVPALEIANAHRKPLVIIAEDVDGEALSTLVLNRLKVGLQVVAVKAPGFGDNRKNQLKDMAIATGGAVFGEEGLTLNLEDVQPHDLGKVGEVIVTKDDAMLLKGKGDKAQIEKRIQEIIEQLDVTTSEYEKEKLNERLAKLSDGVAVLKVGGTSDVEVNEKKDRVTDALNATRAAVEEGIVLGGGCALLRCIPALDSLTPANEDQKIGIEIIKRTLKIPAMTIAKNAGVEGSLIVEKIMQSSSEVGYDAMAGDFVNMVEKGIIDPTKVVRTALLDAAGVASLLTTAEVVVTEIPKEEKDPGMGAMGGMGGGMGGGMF

What was measured:
[1] = molecular target: T1, Biotin-P17 (synthetic peptide P17, 39 residues, N-terminally biotinylated); experiment: pull-down; 'P17/P17S+beads': P17- or P17S-conjugated streptavidin magnetic beads incubated with precleared RIFA lysate of TRAIL-treated Jurkat cells; binding buffer 0.5 M NaCl, 20 mM Tris-HCl, 1 mM EDTA, pH 7.5, on ice 4 h; western blot for HSP60 and Coomassie staining; only the target purified
T1 sequence (peptide, biotin on the N-terminus): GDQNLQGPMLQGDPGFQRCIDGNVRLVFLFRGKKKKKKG

[2] = molecular target: T2, Biotin-P17S (scrambled P17, N-terminally biotinylated); experiment: as above
T2 sequence (peptide, biotin on the N-terminus): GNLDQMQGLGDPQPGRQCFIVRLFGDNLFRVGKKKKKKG

[3] = molecular target: T1, Biotin-P17 (synthetic peptide P17, 39 residues, N-terminally biotinylated); experiment: pull-down; 'pre-P17/P17S+beads': TRAIL-treated Jurkat cells pre-incubated with biotin-P17 or P17S (10 uM, 30 min, 37 C), washed, lysed in RIFA buffer; complex caught with streptavidin magnetic beads in binding buffer (0.5 M NaCl, 20 mM Tris-HCl, 1 mM EDTA, pH 7.5) on ice 4 h; western blot for HSP60 and Coomassie staining; only the target purified
[4] = molecular target: T2, Biotin-P17S (scrambled P17, N-terminally biotinylated); experiment: as above

binding [1]: binds
binding [2]: no binding
binding [3]: binds
binding [4]: no binding (tested: 10 uM)
Substance: heat shock protein 60 (HSP60) (from UniProt P10809 27-573)
